Source: the supplement of paper PMC9254222
Over roughly 1,100 compounds, “Wnt reporter firefly/Renilla luciferase ratio relative to plate median” has its median near 1.1; the highest 2% begin near 1.6. Only a part is listed here, and it is no random draw.

Test system: HEK293T (UBE3A T485A transfected, BAR Wnt reporter)
Assay: Wnt reporter firefly/Renilla luciferase ratio relative to plate median (fold (linear ratio)); higher = more Wnt/beta-catenin reporter activation
Conditions: 24 h
Outline: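 Each value averages four biological replicates in HEK293T cells grown at 4500 cells/well in DMEM with 10% FBS at 37°C and 5% CO2. The cells were transfected with a BAR firefly luciferase Wnt reporter, TK-Renilla and an expression plasmid, then four hours later robotically treated with the chemicals at 0.01–100 uM for 24 h. Dual-Glo luciferase signals were median-centred per plate, with the firefly/Renilla ratio reported as Wnt activity and raw Renilla as cell health.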

Q: For CN1CCC(c2c(O)cc(O)c3c(=O)cc(-c4ccccc4Cl)oc23)C(O)C1 (stereo not drawn) [Flavopiridol], which “Wnt reporter firefly/Renilla luciferase ratio” value (concentration: 0.01 uM) is on record?
A: 1.17

Q: What about the “Wnt reporter firefly/Renilla luciferase ratio” value (concentration: 0.1 uM) of the same compound?
A: 2

Q: With CC1(C)NC(=O)N(c2ccc([N+](=O)[O-])c(C(F)(F)F)c2)C1=O [Nilutamide] as the compound, how does the “Wnt reporter firefly/Renilla luciferase ratio” value (concentration: 0.1 uM) read?
A: 1.2

Q: What about the “Wnt reporter firefly/Renilla luciferase ratio” value (concentration: 1 uM) of the same compound?
A: 1

Q: What about the “Wnt reporter firefly/Renilla luciferase ratio” value (concentration: 10 uM) of the same compound?
A: 0.785

Q: And the “Wnt reporter firefly/Renilla luciferase ratio” value (concentration: 100 uM)?
A: 0.403

Q: COc1cc2c3c(n(CCCn4ccnc4)c(=O)c2cc1OC)-c1cc2c(cc1C3=O)OCO2.Cl was tested. Which “Wnt reporter firefly/Renilla luciferase ratio” value (concentration: 0.01 uM) did it give?
A: 1.15

Q: And the “Wnt reporter firefly/Renilla luciferase ratio” value (concentration: 0.1 uM)?
A: 0.457

Q: What about the “Wnt reporter firefly/Renilla luciferase ratio” value (concentration: 1 uM) of the same compound?
A: 0.72

Q: And the “Wnt reporter firefly/Renilla luciferase ratio” value (concentration: 10 uM)?
A: 0.631

Q: And the “Wnt reporter firefly/Renilla luciferase ratio” value (concentration: 100 uM)?
A: 0.938

Q: Which “Wnt reporter firefly/Renilla luciferase ratio” value (concentration: 0.1 uM) does the source give for O=C(O)c1ccccc1C(c1ccc(O)cc1)c1ccc(O)cc1 [Phenolphthalin] here?
A: 0.794

Q: And the “Wnt reporter firefly/Renilla luciferase ratio” value (concentration: 1 uM)?
A: 0.751

Q: What about the “Wnt reporter firefly/Renilla luciferase ratio” value (concentration: 10 uM) of the same compound?
A: 1.06

Q: What about the “Wnt reporter firefly/Renilla luciferase ratio” value (concentration: 100 uM) of the same compound?
A: 1.6

Q: Which “Wnt reporter firefly/Renilla luciferase ratio” value (concentration: 0.1 uM) does the source give for CC(C)c1nnc2ccc(-c3ocnc3-c3cc(F)ccc3F)cn12 here?
A: 0.481

Q: What about the “Wnt reporter firefly/Renilla luciferase ratio” value (concentration: 1 uM) of the same compound?
A: 0.606

Q: And the “Wnt reporter firefly/Renilla luciferase ratio” value (concentration: 10 uM)?
A: 0.539

Q: What about the “Wnt reporter firefly/Renilla luciferase ratio” value (concentration: 100 uM) of the same compound?
A: 0.17

Q: Which “Wnt reporter firefly/Renilla luciferase ratio” value (concentration: 0.1 uM) does the source give for CN1CCN(c2ccccc2/C=C2\SCCN(c3ccc(Cl)c(Cl)c3)C2=O)CC1 [Elzasonan] here?
A: 1.18

Q: What about the “Wnt reporter firefly/Renilla luciferase ratio” value (concentration: 1 uM) of the same compound?
A: 1.03

Q: And the “Wnt reporter firefly/Renilla luciferase ratio” value (concentration: 10 uM)?
A: 1.16

Q: What does the source list for COC(=O)C12CCC(C)(C)CC1C1C(=O)C=C3C4(C)C=C(C#N)C(=O)C(C)(C)C4CCC3(C)C1(C)CC2 (stereo not drawn) [Bardoxalone-methyl]?
A: Wnt reporter firefly/Renilla luciferase ratio (concentration: 0.01 uM): 1.25; Wnt reporter firefly/Renilla luciferase ratio (concentration: 0.1 uM): 0.945; Wnt reporter firefly/Renilla luciferase ratio (concentration: 1 uM): 0.246

Q: What does the source list for Cc1cc(C=C2SC(=O)N(c3ccccc3)C2=O)c(C)n1-c1cccnc1?
A: Wnt reporter firefly/Renilla luciferase ratio (concentration: 0.1 uM): 0.482; Wnt reporter firefly/Renilla luciferase ratio (concentration: 1 uM): 0.538; Wnt reporter firefly/Renilla luciferase ratio (concentration: 10 uM): 0.389; Wnt reporter firefly/Renilla luciferase ratio (concentration: 100 uM): 0.221

Q: Which “Wnt reporter firefly/Renilla luciferase ratio” value (concentration: 100 uM) does the source give for Nc1ncn([C@@H]2O[C@H](CO)[C@@H](O)[C@H]2O)c(=O)n1 [5-azacytidine] here?
A: 2.42

Q: What does the source list for [Cl-].c1ccc(C[n+]2cccc3ccccc32)cc1 [1-Benzylquinolinium chloride]?
A: Wnt reporter firefly/Renilla luciferase ratio (concentration: 0.1 uM): 0.993; Wnt reporter firefly/Renilla luciferase ratio (concentration: 1 uM): 0.903; Wnt reporter firefly/Renilla luciferase ratio (concentration: 10 uM): 1.05

Q: What does the source list for CCCCOCCOCCO [2-(2-Butoxyethoxy)ethanol]?
A: Wnt reporter firefly/Renilla luciferase ratio (concentration: 0.1 uM): 0.859; Wnt reporter firefly/Renilla luciferase ratio (concentration: 1 uM): 0.98; Wnt reporter firefly/Renilla luciferase ratio (concentration: 10 uM): 0.872; Wnt reporter firefly/Renilla luciferase ratio (concentration: 100 uM): 0.969

Q: With Cc1cc(=O)[nH]c(=S)[nH]1 [6-Methyl-2-thiouracil] as the compound, how does the “Wnt reporter firefly/Renilla luciferase ratio” value (concentration: 0.1 uM) read?
A: 1.07

Q: And the “Wnt reporter firefly/Renilla luciferase ratio” value (concentration: 1 uM)?
A: 1.13

Q: And the “Wnt reporter firefly/Renilla luciferase ratio” value (concentration: 10 uM)?
A: 1.33

Q: And the “Wnt reporter firefly/Renilla luciferase ratio” value (concentration: 100 uM)?
A: 1.37

Q: How did the “Wnt reporter firefly/Renilla luciferase ratio” value (concentration: 0.1 uM) turn out when O=c1c(O)c(-c2ccc(O)c(O)c2)oc2cc(O)cc(O)c12 [Quercetin] was run?
A: 1.1

Q: What about the “Wnt reporter firefly/Renilla luciferase ratio” value (concentration: 1 uM) of the same compound?
A: 1.09

Q: What about the “Wnt reporter firefly/Renilla luciferase ratio” value (concentration: 10 uM) of the same compound?
A: 1.38

Q: For CCC(C)c1ccccc1O (stereo not drawn) [2-(Butan-2-yl)phenol], which “Wnt reporter firefly/Renilla luciferase ratio” value (concentration: 0.1 uM) is on record?
A: 1.19

Q: And the “Wnt reporter firefly/Renilla luciferase ratio” value (concentration: 1 uM)?
A: 0.977

Q: And the “Wnt reporter firefly/Renilla luciferase ratio” value (concentration: 10 uM)?
A: 0.947

Q: And the “Wnt reporter firefly/Renilla luciferase ratio” value (concentration: 100 uM)?
A: 1.14

Q: For CN(C)C(=O)C1(N2CCCCC2)CCN(CC[C@@]2(c3ccc(Cl)c(Cl)c3)CN(C(=O)c3ccccc3)CCO2)CC1, which “Wnt reporter firefly/Renilla luciferase ratio” value (concentration: 0.1 uM) is on record?
A: 0.929

Q: What about the “Wnt reporter firefly/Renilla luciferase ratio” value (concentration: 1 uM) of the same compound?
A: 1.05

Q: And the “Wnt reporter firefly/Renilla luciferase ratio” value (concentration: 10 uM)?
A: 0.811

Q: What does the source list for CCCCC=O [Pentanal]?
A: Wnt reporter firefly/Renilla luciferase ratio (concentration: 0.1 uM): 1.21; Wnt reporter firefly/Renilla luciferase ratio (concentration: 1 uM): 1.06; Wnt reporter firefly/Renilla luciferase ratio (concentration: 10 uM): 1.22; Wnt reporter firefly/Renilla luciferase ratio (concentration: 100 uM): 1.4

Q: Which “Wnt reporter firefly/Renilla luciferase ratio” value (concentration: 0.1 uM) does the source give for CCCCCCCCCCCCc1ccccc1 [Dodecylbenzene] here?
A: 1.06

Q: What about the “Wnt reporter firefly/Renilla luciferase ratio” value (concentration: 1 uM) of the same compound?
A: 1.03

Q: What about the “Wnt reporter firefly/Renilla luciferase ratio” value (concentration: 10 uM) of the same compound?
A: 1.08

Q: And the “Wnt reporter firefly/Renilla luciferase ratio” value (concentration: 100 uM)?
A: 0.984

Q: Which “Wnt reporter firefly/Renilla luciferase ratio” value (concentration: 0.1 uM) does the source give for COC(=O)c1c(Cl)c(Cl)c(C(=O)OC)c(Cl)c1Cl [Chlorthal-dimethyl] here?
A: 1.06

Q: And the “Wnt reporter firefly/Renilla luciferase ratio” value (concentration: 1 uM)?
A: 0.924

Q: What about the “Wnt reporter firefly/Renilla luciferase ratio” value (concentration: 10 uM) of the same compound?
A: 0.94

Q: What about the “Wnt reporter firefly/Renilla luciferase ratio” value (concentration: 100 uM) of the same compound?
A: 0.903
